These are yes or no findings as the source states them, for the method shown. Some entries that bind do so weakly or less than the wild type.

The chains behind the UniProt entries cited, without tags or fusion partners. Where a name states a change or a piece, a line headed by the entry shows the natural chain unless it says otherwise.
UniProt Q15858: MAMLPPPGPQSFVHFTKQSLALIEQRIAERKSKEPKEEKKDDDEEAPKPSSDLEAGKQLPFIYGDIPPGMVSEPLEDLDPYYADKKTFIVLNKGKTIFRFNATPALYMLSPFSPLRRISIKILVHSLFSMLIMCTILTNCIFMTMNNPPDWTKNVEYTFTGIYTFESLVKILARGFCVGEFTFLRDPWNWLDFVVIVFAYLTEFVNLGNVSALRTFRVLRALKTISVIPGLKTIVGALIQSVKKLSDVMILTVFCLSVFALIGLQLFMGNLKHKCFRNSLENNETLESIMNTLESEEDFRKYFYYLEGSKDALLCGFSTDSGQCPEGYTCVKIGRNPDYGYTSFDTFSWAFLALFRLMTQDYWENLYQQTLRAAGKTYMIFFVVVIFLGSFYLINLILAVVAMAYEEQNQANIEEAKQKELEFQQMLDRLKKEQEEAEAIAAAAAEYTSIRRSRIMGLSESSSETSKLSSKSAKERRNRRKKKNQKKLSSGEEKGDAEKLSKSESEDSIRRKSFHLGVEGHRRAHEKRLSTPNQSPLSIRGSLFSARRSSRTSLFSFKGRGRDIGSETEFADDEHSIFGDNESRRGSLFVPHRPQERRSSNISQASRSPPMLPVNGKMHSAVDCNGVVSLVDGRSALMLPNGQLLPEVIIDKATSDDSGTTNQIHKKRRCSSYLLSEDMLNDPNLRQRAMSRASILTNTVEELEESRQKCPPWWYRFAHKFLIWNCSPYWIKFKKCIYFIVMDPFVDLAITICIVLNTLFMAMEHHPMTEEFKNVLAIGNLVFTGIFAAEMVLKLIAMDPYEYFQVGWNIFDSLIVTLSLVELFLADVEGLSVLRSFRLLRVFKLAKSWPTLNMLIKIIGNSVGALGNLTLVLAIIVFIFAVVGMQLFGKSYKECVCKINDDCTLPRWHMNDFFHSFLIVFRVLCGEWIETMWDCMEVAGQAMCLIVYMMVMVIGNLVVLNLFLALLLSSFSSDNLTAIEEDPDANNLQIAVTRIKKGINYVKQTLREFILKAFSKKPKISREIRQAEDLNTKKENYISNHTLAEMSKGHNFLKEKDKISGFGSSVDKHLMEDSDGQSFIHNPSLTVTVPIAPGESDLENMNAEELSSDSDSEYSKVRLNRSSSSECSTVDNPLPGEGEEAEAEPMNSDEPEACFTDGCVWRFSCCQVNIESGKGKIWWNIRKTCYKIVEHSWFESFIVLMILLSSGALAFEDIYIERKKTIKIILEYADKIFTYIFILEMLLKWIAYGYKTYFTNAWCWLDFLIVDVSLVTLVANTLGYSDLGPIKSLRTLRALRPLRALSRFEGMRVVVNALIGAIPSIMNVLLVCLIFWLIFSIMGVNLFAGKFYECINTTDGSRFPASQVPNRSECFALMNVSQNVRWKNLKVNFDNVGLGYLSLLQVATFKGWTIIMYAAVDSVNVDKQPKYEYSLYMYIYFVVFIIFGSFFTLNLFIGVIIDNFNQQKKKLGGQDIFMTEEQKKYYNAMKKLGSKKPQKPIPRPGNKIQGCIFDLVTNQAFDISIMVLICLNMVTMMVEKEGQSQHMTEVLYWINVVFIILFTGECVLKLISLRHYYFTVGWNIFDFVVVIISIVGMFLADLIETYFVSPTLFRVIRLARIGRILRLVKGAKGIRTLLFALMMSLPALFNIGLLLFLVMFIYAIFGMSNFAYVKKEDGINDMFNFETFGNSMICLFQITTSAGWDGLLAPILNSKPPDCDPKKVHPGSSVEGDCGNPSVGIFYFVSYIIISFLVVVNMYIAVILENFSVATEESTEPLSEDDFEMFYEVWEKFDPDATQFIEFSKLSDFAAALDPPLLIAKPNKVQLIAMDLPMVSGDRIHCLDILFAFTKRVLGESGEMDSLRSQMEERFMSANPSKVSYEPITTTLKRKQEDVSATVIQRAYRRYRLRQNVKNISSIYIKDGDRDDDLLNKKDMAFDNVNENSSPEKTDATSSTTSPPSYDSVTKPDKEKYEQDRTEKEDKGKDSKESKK

The target of experiment [1] is N-Term Biotin-Nav1.7 (3-3) peptide, human (same sequence of EC3-3 for mulatta) (human (same sequence of EC3-3 for mulatta)). As to the kind of experiment: ELISA (first token of ELISA/Biacore summary). On the technique in general: In an ELISA, binding on a coated surface is turned into a signal by an enzyme label.
Experiment [2] shares this target. Nature of the experiment: ELISA and Biacore summary; mulatta column.
The target in experiment [3] is Native Nav1.7 (3-1) peptide, human (human). As to the kind of experiment: SPR, captured antibody, peptide analyte.
The target of experiment [4] is full-length human Nav1.7 fused at its N-terminus to GFP, expressed in HEK293 cells (human) (UniProt Q15858). As to the kind of experiment: immunostaining of fixed, permeabilized HEK293 cells.
Experiment [5] addresses human Nav 1.7 in DRG neurons of Scn9a hu/+ mice (human) (UniProt Q15858). As to the kind of experiment: immunocytochemistry on cultured DRG neurons, antibody 66 nM.

B1: H4H468B (antibody, V domains shown)
VH: EVQLVQSGGGVVQPGRSLRLSCTASGFTFSVYGIHWVRQAPGKGLEWVAVIWYDGSNKYYTDSVKGRFTISRDNSKNTLYLQMNSLRAEDTALYYCAREGDLSSSSGSGGYHYVVDVWGQGTMVTVSS
VL: DIQMTQSPSSLSASVGDRVTITCRASQDIRNDLGWYQQKPGNAPKLLIYSTSSLQSGVPSRFSGSGSGTDFTLTISSLQPEDFATYYCLQDYNYPLTFGGGTKVEIKR
For the molecule B1, the binding result in experiment [1] and in experiment [2] was “binds” in each case.

B2: H1M852N (antibody, V domains shown)
VH: QVQLVESGGGVVQPGRSLTLSCAASGFMFNRFGMHWVRQAPGKGLDWVAVIWYDGSNKYYADSVKGRFTISRDNSKNTLYLQVNSLRAEDTAVYYCAREGTPHYYDSSGLDYWGQGTLVTVSS
VL: AIQMTQSPSSLSAYVGDRVTITCRASQDIRNDLGWYQQKPGKAPNLLIYDISSLQSGVPSRFSGSGSGTDFTLTISSLQPEDFATYYCLQDYNYPLTFGGGTKVEIK
Take B2: the binding result in experiment [1] and in experiment [2] was “binds” in each case.

B3: H4H448B (antibody, V domains shown)
VH: EVQLVQSGGGLVQPGRSLRLSCAASGFTFDDYAMHWVRQAPGKGLEWVSGISWNSGSIGYADSVKGRFTISRDNAKNSLYLQMNSLRAEDTALYYCAKDIEYYDILTGYYSYYIMDVWGQGTTVTVSS
VL: DIRMTQSPSSLSASVGDRGTITCRASQNINSYLNWYQLKPGKAPKLLIFAASSLQSGVPSRFSGSGSGTDFTLTISSLQPEDFATYYCQQSYSSPFTFGQGTKVEIKR
As to B3, the binding entry in experiment [3] is reported as “binds”.

B4: H4H385B (antibody, V domains shown)
VH: QVQLVESGGGVVQPGRSLRLSCAASGFTFSSYGMHWVRQAPGKGLEWVALISYVGSNKHYADSVKGRFTISRDNSKNTLYLQMNSLRAEDTAVYYCAKSRGYSYGLDYWGQGTLVTVSS
VL: DIQMTQSPDSLAVSLGERATINCKSSQTVLHSSNNQNNLVWYQQKPGQPPKLLIYWASTRESGVPDRFSGSGSGTDFTLTISSLQAEDVAIYYCQQYYSTPYTFGQGTKLEIKR
Consider B4, for which the binding result in experiment [4] was “binds”.

B5: H1H1006B (antibody, V domains shown)
VH: EVQLVESGPGLVKSSETLSLKCTVSGGSISSSGYYWGWIRQPPGKGLEWIGSIHRSGSTFYNPSLKSRVTISVDTSKSQFSLRLTSVTAADTSVYFCGRHGRDYYYGMDVWGQGTTVTVSS
VL: DIQMTQSPSSVSASVGDRVTITCRSSQDINNWLVWYQQKPGKAPKVLIYGASRLQSGVPSRFSGSGSGTDFTLTISSLQPEDFATYYCQQANSFPLTFGGGTKVEIKR
Consider B5, for which the binding result in experiment [5] is recorded as “binds”.

Values taken from patent US20160024208A1.
